Experimental data: PubChem BioAssay AID652243 (Drosophila RNAi Screening Center, 2013)

Test: 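Knock-downs that decrease or increase androgen receptor reporter signal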 (primary screen)
Cell system: Drosophila S2R+ cells
Reagents: long dsRNA against Drosophila genes
Time to read-out: 72 h (48 h, then 24 h hormone)
Challenge: synthetic androgen R1881 at 10 nM for 24 h
Detection: 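Per-well raw luminescence of the androgen-driven firefly reporter and of the Renilla control, two replicates each, without normalisation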
Reading the numbers: firefly reporter light: higher = more light from androgen-responsive reporter; Renilla control light: higher = more constitutive control signal (cell number, transfection)
Hit rule: 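Hit when the log firefly-to-Renilla ratio dropped or increased by a fixed fold versus the mean of GFP or LacZ controls across duplicate plates; lowering cut given as 1.5 and as 3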
Meaning of the calls: active = hit: reporter lowered or raised; inactive = no hit
The deposit covers about 24,000 reagents; this is an unselected part of those that have a named target and a result. In the full data, 246 (1%) are marked active. 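Plates not normalised; calls are printed but the firefly/Renilla ratio behind them is not deposited; fold cut for lowering reported inconsistently.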 Raw values are not corrected between plates. Entries without a mark were called inactive. The numbers tell different reagents against one gene apart. A plus sign joins genes that one reagent is predicted to hit. Not stated in the record: the amount of reagent.

Which result is listed for prom #1?
firefly reporter light, replicate 1: 1.40e5; firefly reporter light, replicate 2: 1.26e5; Renilla control light, replicate 1: 1.11e6; Renilla control light, replicate 2: 1.04e6

With prom #2, what does the deposit list?
firefly reporter light, replicate 1: 1.34e6; firefly reporter light, replicate 2: 1.40e6; Renilla control light, replicate 1: 1.66e6; Renilla control light, replicate 2: 1.76e6

With prom #3, how do the results read?
firefly reporter light, replicate 1: 9.62e5; firefly reporter light, replicate 2: 1.10e6; Renilla control light, replicate 1: 1.40e6; Renilla control light, replicate 2: 1.45e6

What did the screen give for prom #4?
firefly reporter light, replicate 1: 5.66e5; firefly reporter light, replicate 2: 5.27e5; Renilla control light, replicate 1: 5.90e5; Renilla control light, replicate 2: 6.98e5

Which result is listed for prom #5?
firefly reporter light, replicate 1: 3.77e5; firefly reporter light, replicate 2: 3.23e5; Renilla control light, replicate 1: 7.68e5; Renilla control light, replicate 2: 7.10e5

How did the screen score prom #6?
firefly reporter light, replicate 1: 1.90e5; firefly reporter light, replicate 2: 2.02e5; Renilla control light, replicate 1: 4.01e5; Renilla control light, replicate 2: 7.57e5

For CecA2, what does the deposit list?
firefly reporter light, replicate 1: 2.73e5; firefly reporter light, replicate 2: 2.60e5; Renilla control light, replicate 1: 2.26e6; Renilla control light, replicate 2: 3.32e6

How did the screen score nAChRbeta2?
firefly reporter light, replicate 1: 94700; firefly reporter light, replicate 2: 89854; Renilla control light, replicate 1: 5.78e5; Renilla control light, replicate 2: 5.39e5

A run of entries taken from the entries so far:
prom #5 — firefly reporter light, replicate 1: 3.77e5; firefly reporter light, replicate 2: 3.23e5; Renilla control light, replicate 1: 7.68e5; Renilla control light, replicate 2: 7.10e5
prom #6 — firefly reporter light, replicate 1: 1.90e5; firefly reporter light, replicate 2: 2.02e5; Renilla control light, replicate 1: 4.01e5; Renilla control light, replicate 2: 7.57e5
CecA2 — firefly reporter light, replicate 1: 2.73e5; firefly reporter light, replicate 2: 2.60e5; Renilla control light, replicate 1: 2.26e6; Renilla control light, replicate 2: 3.32e6

The results go on:
Which result is listed for CG12128 + CG1407?
firefly reporter light, replicate 1: 7.75e5; firefly reporter light, replicate 2: 9.24e5; Renilla control light, replicate 1: 1.91e6; Renilla control light, replicate 2: 1.81e6

What did the screen give for Dhps?
firefly reporter light, replicate 1: 1.27e5; firefly reporter light, replicate 2: 1.11e5; Renilla control light, replicate 1: 1.58e6; Renilla control light, replicate 2: 1.29e6

Which result is listed for sut4 #1?
firefly reporter light, replicate 1: 1.12e6; firefly reporter light, replicate 2: 8.91e5; Renilla control light, replicate 1: 1.55e6; Renilla control light, replicate 2: 1.82e6

How did the screen score sut4 #2?
firefly reporter light, replicate 1: 1.71e5; firefly reporter light, replicate 2: 2.96e5; Renilla control light, replicate 1: 6.62e5; Renilla control light, replicate 2: 6.65e5

Which result is listed for Ibf2?
firefly reporter light, replicate 1: 75571; firefly reporter light, replicate 2: 1.03e5; Renilla control light, replicate 1: 1.63e6; Renilla control light, replicate 2: 1.57e6

What is on record for Kdsr?
firefly reporter light, replicate 1: 4.72e5; firefly reporter light, replicate 2: 5.53e5; Renilla control light, replicate 1: 2.76e6; Renilla control light, replicate 2: 4.21e6

Which result is listed for cno #1?
firefly reporter light, replicate 1: 1.73e5; firefly reporter light, replicate 2: 83463; Renilla control light, replicate 1: 2.57e5; Renilla control light, replicate 2: 2.53e5

With cno #2, what does the deposit list?
firefly reporter light, replicate 1: 1.04e6; firefly reporter light, replicate 2: 1.03e6; Renilla control light, replicate 1: 1.22e6; Renilla control light, replicate 2: 9.46e5

How did the screen score cno #3?
firefly reporter light, replicate 1: 1.85e5; firefly reporter light, replicate 2: 2.46e5; Renilla control light, replicate 1: 9.62e5; Renilla control light, replicate 2: 6.85e5

What did the screen give for cno #4?
firefly reporter light, replicate 1: 2.95e5; firefly reporter light, replicate 2: 1.98e5; Renilla control light, replicate 1: 8.43e5; Renilla control light, replicate 2: 8.26e5

For Skp2 + CG14645, what was measured?
firefly reporter light, replicate 1: 82357; firefly reporter light, replicate 2: 1.50e5; Renilla control light, replicate 1: 2.23e6; Renilla control light, replicate 2: 1.53e6

With FarO, what does the deposit list?
firefly reporter light, replicate 1: 3.70e5; firefly reporter light, replicate 2: 4.38e5; Renilla control light, replicate 1: 4.82e6; Renilla control light, replicate 2: 3.92e6

What is on record for insb #1?
firefly reporter light, replicate 1: 68586; firefly reporter light, replicate 2: 68410; Renilla control light, replicate 1: 1.63e6; Renilla control light, replicate 2: 1.63e6

For insb #2, what was measured?
firefly reporter light, replicate 1: 1.00e6; firefly reporter light, replicate 2: 1.04e6; Renilla control light, replicate 1: 1.12e6; Renilla control light, replicate 2: 1.20e6
